The values below come from patent US20120141505A1 (published 2012).

The chains behind the UniProt entries cited, without tags or fusion partners. Where a name states a change or a piece, a line headed by the entry shows the natural chain unless it says otherwise.
UniProt P15391: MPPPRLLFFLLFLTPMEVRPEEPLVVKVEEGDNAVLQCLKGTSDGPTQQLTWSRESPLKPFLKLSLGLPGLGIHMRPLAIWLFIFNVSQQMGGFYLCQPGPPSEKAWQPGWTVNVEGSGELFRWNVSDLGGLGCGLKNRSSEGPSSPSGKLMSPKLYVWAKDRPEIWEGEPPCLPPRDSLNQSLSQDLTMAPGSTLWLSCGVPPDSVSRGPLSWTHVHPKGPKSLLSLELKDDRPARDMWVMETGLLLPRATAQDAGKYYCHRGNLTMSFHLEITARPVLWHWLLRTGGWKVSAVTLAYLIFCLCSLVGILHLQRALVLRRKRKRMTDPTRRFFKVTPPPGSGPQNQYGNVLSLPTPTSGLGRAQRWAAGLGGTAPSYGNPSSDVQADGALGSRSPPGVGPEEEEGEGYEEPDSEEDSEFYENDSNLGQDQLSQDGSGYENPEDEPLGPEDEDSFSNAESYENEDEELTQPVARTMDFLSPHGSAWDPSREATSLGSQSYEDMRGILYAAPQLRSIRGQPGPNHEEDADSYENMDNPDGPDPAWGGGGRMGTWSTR

Assay [1] deals with 95-kDa native CD19 co-receptor protein in lysates of CD19+ human B-lineage lymphoid cell lines (BCL-1, NALM-6, DAUDI, RAMOS) (human) (UniProt P15391). As to the kind of experiment: pull-down from cell lysates with CD19-L on nickel beads, anti-CD19 immunoblot.
Assay [2] addresses maltose-binding protein (MBP)-CD19ECD fusion protein (E. coli; human) (UniProt P15391). As to the kind of experiment: figure legend covering pull-downs, flow cytometry and microscopy. For orientation: In flow cytometry, cells or beads pass a laser one at a time.
The target is the same in assay [3]. As to the kind of experiment: pull-down from cell lysates with MBP-CD19ECD on amylose beads, anti-CD19-L immunoblot. (A western blot detects proteins with antibodies after separation by electrophoresis.)

Results are given in words; binding and its absence hold for the method and conditions named. In cells and extracts the contact can be indirect. Some entries that bind do so weakly or less than the wild type. For part of these data: Sequences can lack the tags named with a protein.

B1: purified soluble recombinant human CD19-L protein (6xHis-tagged, baculovirus/Sf21) (ligand, not shown: small tags and cut ends)
chain: MYMSMTEPSQDYVPASQSYPGPSLESEDFNIPPITPPSLQDHSLVHLNEVESGYHSLCHPMNHNGLLPFHPQNMDLPEITVSNMLGQDGTLLSNSISVMPDIRNPEGTQYSSHPQMAAMRPRGQPAQIRQQPGMMPHGQLTTINQSQLSAQLGLNMGGSNVPHNSPSPPGSKSATPSPSSSVHEDEGDDTSKINGGEKRPASDMGKKPKTPKKKKKKDPNEPQKPVSAYALFFRDTQAAIKGQNPNATFGEVSKIVASMWDGLGEEQKQVYKKKTEAAKKEYLKQLAAYRASLVSKSYSEPVDVKTSQPPQLINSKPSVFHGPSQAHSALYLSSHYHQQPGMNPHLTAMHPSLPRNIAPKPNNQMQVTVSIANMAVSPPPPLQISPPLHQHLNMQQHQPLTMQQPLGNQLPMQVQSALHSPTMQQGFTLQPDYQTIINPTSTAAQVVTQAMEYVRSGCRNPPPQPVDWNNDYCSSGGMQRDKALYLT
With B1, the binding entry in assay [1] was “binds”.

B2: native CD19-L from human lymphoid cell lines (MOLT-3, JURKAT, NALM-6, BCL-1 lysates) (ligand)
chain: B1 chain
As for B2, the binding entry in assay [2] and in assay [3] was “binds” in each case.
